According to patent US8771973B2, “Methods for treating bleeding disorders using sulfated polysaccharides” (Baxter Healthcare S.A., priority 2004, dated 2014):
Some entries share one result that the patent states for a list of compounds.

Test system: human plasma
Assay: Clotting assays (dPT, aPTT) in human plasma, summary statements
Format: biochemical

Substance	margin between anti-TFPI or accelerated dPT clotting activity and onset of net anticoagulation
Pentosan Polysulphate Sodium [PPS]	≥ 50 fold
Fucoidan	≥ 50 fold
